Measurements taken from the M2OR odorant receptor database.
The entries are a selection whose mix differs from that of the whole data set. Calls are pooled over several reports, among them a noisy single-well screen. The list shows a part of the results.

Chains of the proteins cited; added tags and fusions are not shown. Where a name states a change or a piece, a line headed by the entry shows the natural chain unless it says otherwise. Chains listed by the source or under a name are the forms on record and can include a tag or linker.
UniProt Q15612: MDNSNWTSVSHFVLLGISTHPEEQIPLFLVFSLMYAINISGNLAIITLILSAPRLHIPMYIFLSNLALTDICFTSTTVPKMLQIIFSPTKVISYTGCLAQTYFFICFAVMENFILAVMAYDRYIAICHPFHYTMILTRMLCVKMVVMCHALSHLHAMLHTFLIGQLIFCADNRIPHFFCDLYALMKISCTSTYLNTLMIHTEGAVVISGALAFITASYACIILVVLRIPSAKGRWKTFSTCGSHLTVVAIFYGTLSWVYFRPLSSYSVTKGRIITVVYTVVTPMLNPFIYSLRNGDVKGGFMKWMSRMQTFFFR
UniProt Q8NH92: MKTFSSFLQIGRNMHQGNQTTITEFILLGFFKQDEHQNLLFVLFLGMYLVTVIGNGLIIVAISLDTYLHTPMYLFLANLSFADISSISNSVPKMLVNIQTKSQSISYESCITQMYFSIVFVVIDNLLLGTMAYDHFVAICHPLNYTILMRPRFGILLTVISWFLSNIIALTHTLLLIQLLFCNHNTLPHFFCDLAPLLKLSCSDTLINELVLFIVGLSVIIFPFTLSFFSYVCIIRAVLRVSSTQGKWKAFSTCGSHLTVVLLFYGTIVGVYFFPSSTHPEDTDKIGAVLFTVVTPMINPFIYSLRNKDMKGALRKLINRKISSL
OR1N2, as listed by the source: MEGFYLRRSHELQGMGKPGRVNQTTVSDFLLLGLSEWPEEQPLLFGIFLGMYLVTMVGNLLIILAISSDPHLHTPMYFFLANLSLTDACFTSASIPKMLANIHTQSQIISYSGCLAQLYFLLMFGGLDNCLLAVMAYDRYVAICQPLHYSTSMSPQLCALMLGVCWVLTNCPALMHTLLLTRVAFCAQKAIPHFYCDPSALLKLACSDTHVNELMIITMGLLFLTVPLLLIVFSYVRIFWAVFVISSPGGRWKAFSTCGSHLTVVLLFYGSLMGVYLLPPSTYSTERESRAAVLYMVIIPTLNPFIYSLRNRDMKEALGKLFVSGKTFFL

How the values were obtained:
Details in all cases: stereoisomer not certain
OR1L1 = system: T1, OR1L1
T1 sequence (whole entry): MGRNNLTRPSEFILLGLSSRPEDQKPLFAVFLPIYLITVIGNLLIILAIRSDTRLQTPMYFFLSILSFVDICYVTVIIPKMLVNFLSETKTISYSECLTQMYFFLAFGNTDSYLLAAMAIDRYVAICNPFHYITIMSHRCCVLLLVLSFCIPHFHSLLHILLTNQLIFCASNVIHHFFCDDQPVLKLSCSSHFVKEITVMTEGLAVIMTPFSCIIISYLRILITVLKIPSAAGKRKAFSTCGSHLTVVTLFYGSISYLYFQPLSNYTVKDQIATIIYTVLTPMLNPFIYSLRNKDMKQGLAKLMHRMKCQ
In short: (§1)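 Values were gathered from published papers (main text and supplementary material), with extra details requested from the original authors when needed, and checked for typos and inconsistencies. Each receptor–molecule pair is called responsive (active) if the original authors judged the measured signal statistically different from baseline, and non-responsive (inactive) otherwise. Assay methods varied by source, often transient mammalian cell-line luciferase assays. Recorded details include cell line, G-protein, co-transfected protein and tags.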

OR1L3 (Homo sapiens) = target: T2, OR1L3 (Homo sapiens) (UniProt Q8NH93)
T2 sequence (whole entry): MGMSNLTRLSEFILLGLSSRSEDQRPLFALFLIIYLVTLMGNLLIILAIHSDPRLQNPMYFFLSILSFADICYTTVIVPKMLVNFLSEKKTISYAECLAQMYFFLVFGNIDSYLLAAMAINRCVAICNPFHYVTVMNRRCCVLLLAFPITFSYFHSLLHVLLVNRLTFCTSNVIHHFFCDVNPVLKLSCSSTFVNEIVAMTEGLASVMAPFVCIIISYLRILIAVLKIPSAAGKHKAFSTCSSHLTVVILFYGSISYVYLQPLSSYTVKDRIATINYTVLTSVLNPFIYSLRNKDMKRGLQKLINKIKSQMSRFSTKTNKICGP
In short: as §1

OR1L4 = system: T3, OR1L4
T3 sequence (whole entry): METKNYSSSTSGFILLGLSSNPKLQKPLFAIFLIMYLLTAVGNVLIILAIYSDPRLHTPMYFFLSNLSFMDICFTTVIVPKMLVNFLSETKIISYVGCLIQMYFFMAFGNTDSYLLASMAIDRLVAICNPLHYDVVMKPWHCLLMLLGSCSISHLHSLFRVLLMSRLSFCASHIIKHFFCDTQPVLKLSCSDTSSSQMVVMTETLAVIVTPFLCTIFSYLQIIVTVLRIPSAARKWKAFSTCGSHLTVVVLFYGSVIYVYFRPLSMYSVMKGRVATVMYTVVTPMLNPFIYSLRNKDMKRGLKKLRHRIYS
In short: as §1

OR1L6 = system: T4, OR1L6
T4 sequence (whole entry): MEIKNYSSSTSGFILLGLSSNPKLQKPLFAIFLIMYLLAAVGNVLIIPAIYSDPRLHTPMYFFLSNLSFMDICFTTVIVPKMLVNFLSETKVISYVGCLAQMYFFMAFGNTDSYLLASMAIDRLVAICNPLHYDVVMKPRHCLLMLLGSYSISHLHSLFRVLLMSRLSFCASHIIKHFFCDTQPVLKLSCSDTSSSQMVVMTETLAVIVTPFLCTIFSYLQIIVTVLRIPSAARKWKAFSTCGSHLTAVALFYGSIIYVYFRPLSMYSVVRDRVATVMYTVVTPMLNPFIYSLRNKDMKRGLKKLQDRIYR
In short: as §1

OR1L8 (Homo sapiens) = target: T5, OR1L8 (Homo sapiens) (UniProt Q8NGR8)
T5 sequence (whole entry): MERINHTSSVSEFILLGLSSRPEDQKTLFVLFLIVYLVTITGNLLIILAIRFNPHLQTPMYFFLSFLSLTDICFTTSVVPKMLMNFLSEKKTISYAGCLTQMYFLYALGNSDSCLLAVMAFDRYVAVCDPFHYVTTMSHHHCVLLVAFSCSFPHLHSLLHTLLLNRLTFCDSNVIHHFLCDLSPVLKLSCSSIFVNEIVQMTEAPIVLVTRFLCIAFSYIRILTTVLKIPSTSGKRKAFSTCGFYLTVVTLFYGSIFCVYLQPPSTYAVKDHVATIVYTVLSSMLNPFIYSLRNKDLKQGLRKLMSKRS
In short: as §1

OR1M1 (Homo sapiens) = OR1M1 (Homo sapiens) (UniProt Q8NGA1)
In short: as §1

OR1M1 = system: T6, OR1M1
T6 sequence (whole entry): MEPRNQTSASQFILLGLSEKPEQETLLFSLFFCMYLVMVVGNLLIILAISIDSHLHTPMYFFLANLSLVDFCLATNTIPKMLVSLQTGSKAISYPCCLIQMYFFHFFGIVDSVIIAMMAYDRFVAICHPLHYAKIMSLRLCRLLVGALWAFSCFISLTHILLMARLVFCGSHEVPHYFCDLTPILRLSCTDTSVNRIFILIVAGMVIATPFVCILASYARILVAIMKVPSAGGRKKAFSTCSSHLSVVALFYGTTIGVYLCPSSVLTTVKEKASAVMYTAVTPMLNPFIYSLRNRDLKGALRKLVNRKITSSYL
In short: as §1

OR1N1 (Homo sapiens) = target: T7, OR1N1 (Homo sapiens) (UniProt Q8NGS0)
T7 sequence (whole entry): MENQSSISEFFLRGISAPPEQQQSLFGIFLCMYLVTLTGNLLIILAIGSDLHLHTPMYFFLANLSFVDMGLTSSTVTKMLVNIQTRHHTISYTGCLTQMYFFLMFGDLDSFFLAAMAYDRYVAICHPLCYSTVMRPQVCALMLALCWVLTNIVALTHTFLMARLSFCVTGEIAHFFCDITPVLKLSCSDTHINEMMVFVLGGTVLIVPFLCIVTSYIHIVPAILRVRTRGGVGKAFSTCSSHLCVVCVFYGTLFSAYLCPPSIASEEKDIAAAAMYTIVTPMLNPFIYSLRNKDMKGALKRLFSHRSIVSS
In short: as §1

OR1N2 (Homo sapiens) = target: T8, OR1N2 (Homo sapiens) (UniProt Q8NGR9)
T8 sequence (whole entry): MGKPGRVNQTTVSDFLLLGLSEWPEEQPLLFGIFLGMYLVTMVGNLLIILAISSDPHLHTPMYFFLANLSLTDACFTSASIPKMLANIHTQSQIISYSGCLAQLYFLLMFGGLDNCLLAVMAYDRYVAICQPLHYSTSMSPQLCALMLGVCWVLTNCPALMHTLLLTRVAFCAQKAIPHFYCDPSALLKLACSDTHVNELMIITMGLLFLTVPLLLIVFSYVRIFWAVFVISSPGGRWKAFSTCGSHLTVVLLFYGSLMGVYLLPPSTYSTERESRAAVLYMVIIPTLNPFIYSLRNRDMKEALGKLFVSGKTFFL
In short: as §1

OR1N2 [1] = system: T9, OR1N2
T9 sequence (whole entry): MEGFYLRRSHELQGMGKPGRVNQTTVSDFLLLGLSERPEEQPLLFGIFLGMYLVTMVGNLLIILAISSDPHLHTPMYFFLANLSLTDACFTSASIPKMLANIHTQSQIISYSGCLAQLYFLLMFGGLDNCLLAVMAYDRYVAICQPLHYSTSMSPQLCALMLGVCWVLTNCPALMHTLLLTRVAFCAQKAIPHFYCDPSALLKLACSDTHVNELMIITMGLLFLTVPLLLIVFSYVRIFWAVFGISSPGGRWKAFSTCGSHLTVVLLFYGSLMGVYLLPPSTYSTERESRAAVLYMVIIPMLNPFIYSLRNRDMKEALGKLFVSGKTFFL
In short: as §1

OR1Q1 = system: T10, OR1Q1
T10 sequence (whole entry): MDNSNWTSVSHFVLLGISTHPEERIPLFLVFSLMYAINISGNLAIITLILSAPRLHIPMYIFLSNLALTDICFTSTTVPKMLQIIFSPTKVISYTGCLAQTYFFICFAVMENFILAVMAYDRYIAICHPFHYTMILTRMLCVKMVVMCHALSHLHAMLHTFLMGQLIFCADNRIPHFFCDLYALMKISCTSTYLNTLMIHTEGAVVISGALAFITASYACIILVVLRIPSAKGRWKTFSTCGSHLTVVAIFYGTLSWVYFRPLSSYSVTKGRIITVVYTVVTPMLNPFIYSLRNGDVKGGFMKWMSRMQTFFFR
In short: as §1

OR1S1 = system: T11, OR1S1
T11 sequence (whole entry): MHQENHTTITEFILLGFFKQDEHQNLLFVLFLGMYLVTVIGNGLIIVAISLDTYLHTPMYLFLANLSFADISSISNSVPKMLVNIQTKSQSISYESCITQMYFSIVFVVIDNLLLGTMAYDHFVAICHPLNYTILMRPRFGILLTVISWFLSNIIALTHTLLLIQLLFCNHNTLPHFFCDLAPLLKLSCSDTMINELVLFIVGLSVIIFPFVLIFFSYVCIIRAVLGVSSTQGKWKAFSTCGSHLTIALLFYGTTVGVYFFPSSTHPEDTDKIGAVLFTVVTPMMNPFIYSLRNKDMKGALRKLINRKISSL
In short: as §1

OR1S2 = system: T12, OR1S2
T12 sequence (whole entry): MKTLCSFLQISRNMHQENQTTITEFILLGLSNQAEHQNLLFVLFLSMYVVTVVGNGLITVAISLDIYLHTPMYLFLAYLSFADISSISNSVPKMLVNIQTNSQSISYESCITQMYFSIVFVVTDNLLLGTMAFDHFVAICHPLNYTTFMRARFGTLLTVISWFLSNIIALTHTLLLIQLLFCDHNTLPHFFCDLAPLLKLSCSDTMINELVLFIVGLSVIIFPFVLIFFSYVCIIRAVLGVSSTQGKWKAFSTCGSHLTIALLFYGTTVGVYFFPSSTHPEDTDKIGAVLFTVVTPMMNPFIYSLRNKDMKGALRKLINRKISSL
In short: as §1

OR2A12 (Homo sapiens) = target: T13, OR2A12 (Homo sapiens) (UniProt Q8NGT7)
T13 sequence (whole entry): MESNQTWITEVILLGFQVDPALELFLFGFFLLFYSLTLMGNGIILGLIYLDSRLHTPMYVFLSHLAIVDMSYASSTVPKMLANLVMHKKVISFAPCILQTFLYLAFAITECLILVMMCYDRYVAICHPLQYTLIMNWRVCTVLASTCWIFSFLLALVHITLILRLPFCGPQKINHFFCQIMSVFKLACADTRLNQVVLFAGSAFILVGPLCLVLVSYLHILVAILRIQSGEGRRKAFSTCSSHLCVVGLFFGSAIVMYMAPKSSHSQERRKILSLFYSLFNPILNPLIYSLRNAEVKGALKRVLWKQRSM
In short: as §1

OR2A1 (Homo sapiens) = target: T14, OR2A1 (Homo sapiens) (UniProt Q8NGT9)
T14 sequence (whole entry): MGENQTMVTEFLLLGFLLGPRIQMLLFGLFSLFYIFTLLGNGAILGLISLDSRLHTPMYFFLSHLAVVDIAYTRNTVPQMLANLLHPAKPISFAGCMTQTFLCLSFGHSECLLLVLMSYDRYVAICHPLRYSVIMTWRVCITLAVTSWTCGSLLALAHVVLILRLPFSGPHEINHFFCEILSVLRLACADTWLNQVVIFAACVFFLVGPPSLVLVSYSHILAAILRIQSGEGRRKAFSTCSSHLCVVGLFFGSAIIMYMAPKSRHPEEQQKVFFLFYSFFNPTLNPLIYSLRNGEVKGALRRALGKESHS
In short: as §1

OR1L4 (Homo sapiens) = OR1L4 (Homo sapiens) (UniProt Q8NGR5)
In short: as §1

OR1N2 [2] = system: OR1N2; remark: listed apart in the source
In short: as §1

OR1Q1 (Homo sapiens) = OR1Q1 (Homo sapiens) (UniProt Q15612)
In short: as §1

OR1S1 (Homo sapiens) = OR1S1 (Homo sapiens) (UniProt Q8NH92)
In short: as §1

OR1S2 (Homo sapiens) = OR1S2 (Homo sapiens) (UniProt Q8NGQ3)
In short: as §1

Measured: odorant receptor agonist call

CC12C=CCC1C1CCC3=CC(=O)CCC3(C)C1CC2 (configuration not stated)
active: OR1L8 (Homo sapiens) | OR2A12 (Homo sapiens)
not listed: OR2A1 (Homo sapiens) | OR1L4 (Homo sapiens) | OR1N2 [2] | OR1Q1 (Homo sapiens) | OR1S1 (Homo sapiens) | OR1S2 (Homo sapiens)
inactive: all other assays above

CCCCCC(=O)O
not listed: OR1M1 (Homo sapiens) | OR1L4 (Homo sapiens) | OR1N2 [2] | OR1Q1 (Homo sapiens) | OR1S1 (Homo sapiens) | OR1S2 (Homo sapiens)
inactive: all other assays above

CC12C=CCC1C1CCC3CC(=O)CCC3(C)C1CC2 (configuration not stated)
active: OR1M1 | OR1S2
not listed: OR2A1 (Homo sapiens)
inactive: all other assays above

CCC=CCCO
not listed: OR1M1 (Homo sapiens) | OR2A1 (Homo sapiens) | OR1L4 (Homo sapiens) | OR1N2 [2] | OR1Q1 (Homo sapiens) | OR1S1 (Homo sapiens) | OR1S2 (Homo sapiens)
inactive: all other assays above

CCCCCCCOC(C)=O
active: OR1M1
not listed: OR1M1 (Homo sapiens) | OR2A1 (Homo sapiens) | OR1L4 (Homo sapiens) | OR1N2 [2] | OR1Q1 (Homo sapiens) | OR1S1 (Homo sapiens) | OR1S2 (Homo sapiens)
inactive: all other assays above

CC(C)CC(=O)O
not listed: OR1M1 (Homo sapiens) | OR1L4 (Homo sapiens) | OR1N2 [2] | OR1Q1 (Homo sapiens) | OR1S1 (Homo sapiens) | OR1S2 (Homo sapiens)
inactive: all other assays above
